Amino acid sequences for entries named in this document (tags omitted). A change or cut given only in a name is not applied to a line headed by its entry.
UniProt Q9N536: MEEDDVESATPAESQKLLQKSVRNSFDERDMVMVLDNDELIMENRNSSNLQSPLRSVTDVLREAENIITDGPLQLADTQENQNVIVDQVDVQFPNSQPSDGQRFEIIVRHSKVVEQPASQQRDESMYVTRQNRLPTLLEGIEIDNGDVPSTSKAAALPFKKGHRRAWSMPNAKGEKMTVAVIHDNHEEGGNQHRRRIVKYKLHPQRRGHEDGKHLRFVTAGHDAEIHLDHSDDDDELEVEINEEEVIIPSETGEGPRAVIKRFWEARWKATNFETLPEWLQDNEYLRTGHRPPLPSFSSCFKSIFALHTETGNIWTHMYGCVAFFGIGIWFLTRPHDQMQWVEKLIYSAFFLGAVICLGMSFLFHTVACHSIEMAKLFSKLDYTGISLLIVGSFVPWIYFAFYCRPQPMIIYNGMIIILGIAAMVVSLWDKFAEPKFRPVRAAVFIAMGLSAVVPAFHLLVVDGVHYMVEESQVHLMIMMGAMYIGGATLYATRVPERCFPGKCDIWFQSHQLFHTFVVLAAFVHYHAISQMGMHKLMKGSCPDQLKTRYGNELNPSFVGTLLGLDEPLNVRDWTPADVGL

According to paper doi:10.1101/2020.06.11.144329:

Biological target: T1, IGLR-2∷mCherry (C. elegans) (UniProt P34595)
T1 sequence: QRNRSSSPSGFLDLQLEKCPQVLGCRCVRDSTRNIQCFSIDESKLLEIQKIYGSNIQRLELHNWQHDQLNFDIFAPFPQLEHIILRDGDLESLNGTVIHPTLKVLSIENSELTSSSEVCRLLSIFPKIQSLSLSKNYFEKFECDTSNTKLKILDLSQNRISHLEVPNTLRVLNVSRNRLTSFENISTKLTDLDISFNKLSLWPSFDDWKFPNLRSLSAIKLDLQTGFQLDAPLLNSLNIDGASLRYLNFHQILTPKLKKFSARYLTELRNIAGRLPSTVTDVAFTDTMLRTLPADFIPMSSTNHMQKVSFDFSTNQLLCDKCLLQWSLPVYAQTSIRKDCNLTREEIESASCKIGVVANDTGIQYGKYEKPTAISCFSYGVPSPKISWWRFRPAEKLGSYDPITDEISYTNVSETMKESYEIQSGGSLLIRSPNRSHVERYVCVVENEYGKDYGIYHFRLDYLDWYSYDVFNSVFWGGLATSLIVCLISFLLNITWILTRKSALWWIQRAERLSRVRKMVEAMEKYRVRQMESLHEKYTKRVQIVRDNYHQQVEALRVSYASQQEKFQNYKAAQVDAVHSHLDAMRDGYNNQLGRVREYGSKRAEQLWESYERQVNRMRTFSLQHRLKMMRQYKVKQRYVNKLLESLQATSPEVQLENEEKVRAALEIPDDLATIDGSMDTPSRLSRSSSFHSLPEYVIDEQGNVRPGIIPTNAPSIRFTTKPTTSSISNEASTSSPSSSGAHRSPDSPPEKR
Assay: FRET or BRET

“PAQR-2∷GFP (from UniProt Q9N536) (receptor)” was tested, and the binding was “binds”.

Results are given in words; binding and its absence hold for the method and conditions named. In cells and extracts the contact can be indirect. Binding can be weak; no strength is given.
